Results are given in words; binding and its absence hold for the method and conditions named. For some of these results: Binding seen in cells or lysates may run through a third protein. Some results given as binding are weak or reduced against the parent protein; the word gives no strength.
Key:
[1] = molecular target: T1, biotinylated UvrD (bait of the pull-down) (E. coli) (UniProt P03018); assay: pull-down; biotinylated Rep, RepΔC33 and UvrD as bait, from E. coli whole-cell extracts; Coomassie-stained gel and western blot with DnaB antibodies; only the target purified
T1 sequence (chain, biotinylated (site not stated)): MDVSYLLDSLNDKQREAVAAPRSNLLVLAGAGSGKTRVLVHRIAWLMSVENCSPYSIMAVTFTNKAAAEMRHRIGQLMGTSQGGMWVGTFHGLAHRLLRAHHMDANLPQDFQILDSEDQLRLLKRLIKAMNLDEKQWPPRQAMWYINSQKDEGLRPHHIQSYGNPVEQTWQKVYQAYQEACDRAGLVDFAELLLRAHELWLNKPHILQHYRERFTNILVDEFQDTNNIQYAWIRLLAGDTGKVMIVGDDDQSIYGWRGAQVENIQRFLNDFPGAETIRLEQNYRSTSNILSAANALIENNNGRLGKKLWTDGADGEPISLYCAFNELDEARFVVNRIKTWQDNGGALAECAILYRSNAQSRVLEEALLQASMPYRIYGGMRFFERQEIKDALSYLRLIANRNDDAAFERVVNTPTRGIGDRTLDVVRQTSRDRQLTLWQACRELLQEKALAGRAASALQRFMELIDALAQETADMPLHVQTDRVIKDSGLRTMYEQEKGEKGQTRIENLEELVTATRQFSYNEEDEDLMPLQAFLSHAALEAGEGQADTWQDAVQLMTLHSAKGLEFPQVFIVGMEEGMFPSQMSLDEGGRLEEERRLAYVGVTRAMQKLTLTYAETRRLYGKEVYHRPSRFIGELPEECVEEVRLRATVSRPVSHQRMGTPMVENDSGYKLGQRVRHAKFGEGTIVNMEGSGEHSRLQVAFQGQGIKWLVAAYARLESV

The chains behind the UniProt entries cited, without tags or fusion partners. Where a name states a change or a piece, a line headed by the entry shows the natural chain unless it says otherwise. Residues count along the entry.
UniProt P09980: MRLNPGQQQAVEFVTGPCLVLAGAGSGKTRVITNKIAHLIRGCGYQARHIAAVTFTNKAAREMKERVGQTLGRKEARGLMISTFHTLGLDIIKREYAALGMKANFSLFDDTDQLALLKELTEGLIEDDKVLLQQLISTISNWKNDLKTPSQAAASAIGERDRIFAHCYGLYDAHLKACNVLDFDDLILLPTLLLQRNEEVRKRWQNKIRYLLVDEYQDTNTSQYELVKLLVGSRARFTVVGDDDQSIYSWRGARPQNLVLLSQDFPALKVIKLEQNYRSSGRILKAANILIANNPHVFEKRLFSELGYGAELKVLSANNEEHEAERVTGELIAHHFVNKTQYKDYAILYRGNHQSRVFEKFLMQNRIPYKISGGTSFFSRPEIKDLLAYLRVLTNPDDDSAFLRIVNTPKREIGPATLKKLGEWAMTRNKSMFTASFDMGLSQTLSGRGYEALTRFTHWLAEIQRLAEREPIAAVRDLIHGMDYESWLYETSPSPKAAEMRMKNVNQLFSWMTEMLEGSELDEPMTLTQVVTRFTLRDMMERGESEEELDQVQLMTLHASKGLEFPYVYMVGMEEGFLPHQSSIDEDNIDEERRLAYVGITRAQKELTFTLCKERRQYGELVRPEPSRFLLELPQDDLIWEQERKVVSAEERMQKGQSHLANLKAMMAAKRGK
C33^Rep peptide (synthetic peptide corresponding to the C-terminal 33 residues of Rep): residues 641-673 of P09980
UniProt P0ACB0: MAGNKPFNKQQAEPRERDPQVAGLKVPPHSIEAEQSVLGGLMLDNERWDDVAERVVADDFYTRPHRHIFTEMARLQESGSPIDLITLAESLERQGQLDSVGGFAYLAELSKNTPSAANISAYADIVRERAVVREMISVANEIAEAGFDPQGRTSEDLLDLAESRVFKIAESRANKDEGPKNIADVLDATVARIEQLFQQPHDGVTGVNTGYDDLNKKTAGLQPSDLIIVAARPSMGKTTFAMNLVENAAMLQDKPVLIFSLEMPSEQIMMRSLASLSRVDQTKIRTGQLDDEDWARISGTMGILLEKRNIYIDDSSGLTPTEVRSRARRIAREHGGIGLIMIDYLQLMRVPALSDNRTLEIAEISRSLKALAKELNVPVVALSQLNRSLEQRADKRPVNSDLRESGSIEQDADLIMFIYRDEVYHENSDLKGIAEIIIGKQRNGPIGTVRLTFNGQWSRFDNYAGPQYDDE

[2] = molecular target: biotinylated Rep (bait of the pull-down) (E. coli) (UniProt P09980); assay: as above
[3] = molecular target: C33^Rep peptide (synthetic peptide corresponding to the C-terminal 33 residues of Rep) (E. coli) (UniProt P09980); assay: SPR; C33^Rep peptide (260 resonance units) surface-immobilised via an N-terminal biotin tag; DnaB 1 μM monomers and/or DnaC 4 μM monomers, or increasing concentrations of DnaC; both purified
[4] = molecular target: C33^Rep peptide (synthetic peptide corresponding to the C-terminal 33 residues of Rep) (E. coli) (UniProt P09980); assay: SPR; Figure S4; format not shown; both purified

| binding [1] | binding [2] | binding [3] | binding [4] | Substance |
| --- | --- | --- | --- | --- |
| no binding | binds | – | – | DnaB in E. coli whole-cell extract (from UniProt P0ACB0 1-471) (enzyme) |
| – | – | binds | binds | E. coli replicative helicase DnaB, purified (from UniProt P0ACB0 1-471) (enzyme) |

— article PMC2807033
